# Earlier results, collected in patent US12648943B2, “Treatment of adrenocortical carcinoma with selective glucocorticoid receptor modulators (SGRMs) and antibody checkpoint inhibitors” (Corcept Therapeutics Incorporated, priority 2020, dated 2026).
# At least one compound was matched to its structure with a doubt left.
# Tested on: tyrosine aminotransferase (TAT) in HepG2 cells
# Settings: cited from earlier work
structure (smiles),measurement,value
C[C@@H]1C[C@H]2[C@@H]3CCC4=CC(=O)C=C[C@]4(C)[C@@]3(F)[C@@H](O)C[C@]2(C)[C@@]1(O)C(=O)CO [dexamethasone],Activity of tyrosine aminotransferase (TAT),increases
